Laboratory results published in PMC11615784.
No constants are given. Whether binding was seen depends on the method and setting. Binding seen in cells or lysates may run through a third protein. Some results given as binding are weak or reduced against the parent protein; the word gives no strength. Sequences can lack the tags named with a protein.

Chains of the proteins cited; added tags and fusions are not shown.
UniProt Q9UPY5: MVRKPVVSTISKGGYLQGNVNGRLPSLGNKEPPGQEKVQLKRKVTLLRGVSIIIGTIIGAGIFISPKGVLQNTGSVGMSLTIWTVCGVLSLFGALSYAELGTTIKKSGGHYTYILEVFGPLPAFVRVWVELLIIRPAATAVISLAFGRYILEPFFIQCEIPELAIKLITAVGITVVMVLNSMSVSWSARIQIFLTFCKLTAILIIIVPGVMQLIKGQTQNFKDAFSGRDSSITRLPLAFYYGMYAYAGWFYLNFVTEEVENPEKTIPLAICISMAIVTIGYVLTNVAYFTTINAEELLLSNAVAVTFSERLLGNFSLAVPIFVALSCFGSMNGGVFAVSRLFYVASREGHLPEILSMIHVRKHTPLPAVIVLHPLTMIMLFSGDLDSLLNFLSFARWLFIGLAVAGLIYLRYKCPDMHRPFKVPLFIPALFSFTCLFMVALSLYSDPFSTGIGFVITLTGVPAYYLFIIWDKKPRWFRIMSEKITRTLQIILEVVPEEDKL

Molecular target: Flag-tagged xCT (solute carrier family 7 member 11, SLC7A11) (human) (UniProt Q9UPY5)
Assay: co-IP; HEK293T cells (1 x 10^6) transfected with Myc-USP52 and Flag-xCT plasmids (wild type or truncations) for 48 h; lysate in IP binding buffer; Myc-IP or Flag-IP overnight at 4 °C, protein A/G magnetic beads; Western blot

- binding: binds
B1: Myc-tagged USP52 (ubiquitin-specific peptidase 52 / poly(A) specific ribonuclease subunit 2) (enzyme, UniProt Q504Q3 1-1202)
chain: MNFEGLDPGLAEYAPAMHSALDPVLDAHLNPSLLQNVELDPEGVALEALPVQESVHIMEGVYSELHSVVAEVGVPVSVSHFDLHEEMLWVGSHGGHATSFFGPALERYSSFQVNGSDDIRQIQSLENGILFLTKNNLKYMARGGLIIFDYLLDENEDMHSLLLTDSSTLLVGGLQNHIIEIDLNTVQETQKYAVETPGVTIMRQTNRFFFCGHTSGKVSLRDLRTFKVEHEFDAFSGSLSDFDVHGNLLAACGFSSRLTGLACDRFLKVYDLRMMRAITPLQVHVDPAFLRFIPTYTSRLAIISQSGQCQFCEPTGLANPADIFHVNPVGPLLMTFDVSASKQALAFGDSEGCVHLWTDSPEPSFNPYSRETEFALPCLVDSLPPLDWSQDLLPLSLIPVPLTTDTLLSDWPAANSAPAPRRAPPVDAEILRTMKKVGFIGYAPNPRTRLRNQIPYRLKESDSEFDSFSQVTESPVGREEEPHLHMVSKKYRKVTIKYSKLGLEDFDFKHYNKTLFAGLEPHIPNAYCNCMIQVLYFLEPVRCLIQNHLCQKEFCLACELGFLFHMLDLSRGDPCQGNNFLRAFRTIPEASALGLILADSDEASGKGNLARLIQRWNRFILTQLHQDMQELEIPQAYRGAGGSSFCSSGDSVIGQLFSCEMENCSLCRCGSETVRASSTLLFTLSYPDGSKSDKTGKNYDFAQVLKRSICLDQNTQAWCDTCEKYQPTIQTRNIRHLPDILVINCEVNSSKEADFWRMQAEVAFKMAVKKHGGEISKNKEFALADWKELGSPEGVLVCPSIEELKNVWLPFSIRMKMTKNKGLDVCNWTDGDEMQWGPARAEEEHGVYVYDLMATVVHILDSRTGGSLVAHIKVGETYHQRKEGVTHQQWYLFNDFLIEPIDKHEAVQFDMNWKVPAILYYVKRNLNSRYNLNIKNPIEASVLLAEASLARKQRKTHTTFIPLMLNEMPQIGDLVGLDAEFVTLNEEEAELRSDGTKSTIKPSQMSVARITCVRGQGPNEGIPFIDDYISTQEQVVDYLTQYSGIKPGDLDAKISSKHLTTLKSTYLKLRFLIDIGVKFVGHGLQKDFRVINLMVPKDQVLDTVYLFHMPRKRMISLRFLAWYFLDLKIQGETHDSIEDARTALQLYRKYLELSKNGTEPESFHKVLKGLYEKGRKMDWKVPEPEGQTSPKNAAVFSSVLAL
